According to paper PMC12040169 (PLOS Biology, 2025):
This is one part of the list.

Test system: T1, CTL2-GFP (C. trachomatis L2/434/Bu, GFP-expressing)
T1 construct: L2/434/Bu, GFP-expressing
Design: species or system HeLa; Intracellular C. trachomatis growth in HeLa cells, bulk GFP fluorescence relative to DMSO
Details: bulk GFP, single well; 28.5 h, 10 µM; inhibitor

| SMILES | % of control remaining |
| --- | --- |
| NC(=O)C1CCN(C(=O)c2cc(O)nc3ccccc23)CC1 [CBK296719] | 127.433% |
| c1cnc(-c2ccsc2)c(OC2CCCCC2)n1 [CBK106764] | 100% |
| O=C(O)c1cccc2c1C(=O)C(CC1CCCO1)N2 (stereo not shown) [CBK287140] | 153.536% |
| CSc1nnc(-c2ccc(Br)cc2)o1 [CBK026502] | 142.702% |
| O=C1N2CCSC2=NC1(Nc1nccs1)C(F)(F)F (stereo not shown) [CBK267484] | 143.884% |
| CS(=O)(=O)N1CC2(CCN(CCO)CC2)c2ccccc21 [CBK126677] | 110.779% |
| CCc1c(C)cc(C(=O)N(C)C(CC)c2ccccn2)c(=O)n1C (stereo not shown) [CBK307078] | 180.764% |
| CC(C)[C@H](CO)n1c(=O)[nH]c2ncc(-c3cccc4ncccc34)nc21 [CBK064955] | 225.186% |
| Cc1cc(NC(=O)Cc2ccc(Cl)c(Cl)c2)c2ccccc2n1 [CBK116266] | 109.744% |
| O=C1NC2(CCCN(C(=O)c3ccco3)C2)Nc2ccccc21 (stereo not shown) [CBK284803] | 110.926% |
| CCCOC(=O)Cn1cnc2sc(C)c(C)c2c1=O [CBK304371] | 130.16% |
| CCN(Cc1ccccc1)C(=O)NCCc1c[nH]cn1 [CBK155220] | 117.505% |
| N#Cc1cccc(C(=O)N2CCCC3(CCN(Cc4ccccc4)C3)C2)c1 (stereo not shown) [CBK136893] | 118.271% |
| Cc1ccc(C2(C(=O)N3CCC(O)(c4ccccn4)CC3)CC2)cc1 [CBK283754] | 116.104% |
| Cc1nc2ccccn2c1-c1csc(Nc2ccc(C(=O)O)cc2)n1 [CBK261634B] | 91.3938% |
| CCCC(=O)NC(c1ccc(OC)cc1)c1cc(Cl)c2cccnc2c1O (stereo not shown) [CBK293944] | 133.444% |
| CC(C)(C)Nc1nc(OCC#N)nc(N2CCCCC2)n1 [CBK269483] | 90.3597% |
| CCCn1ncc(C(=O)NC(CC)c2cn3cccnc3n2)c1C (stereo not shown) [CBK307640] | 137.597% |
| Cn1nc(-c2ccc(F)cc2)n(-c2ccncc2)c1=O [CBK282294] | 151.639% |
| CCC(Sc1nc(N)cc(=O)[nH]1)C(=O)Nc1ccc2ccccc2c1 (stereo not shown) [CBK265761] | 77.83% |

| SMILES | % of control remaining |
| --- | --- |
| OC[C@@H](c1ccccc1)N1CC[C@H]2c3ccc(Br)cc3CC[C@H]21 [CBK017507C] | 100% |
| O=C(c1ccco1)N1CCC2(CC1)Nc1cccnc1-n1cccc12 [CBK284506] | 90.4155% |
| CN(CC(=O)NCc1ccco1)C1CCCCCC1 [CBK254305] | 142.937% |
| Cc1ccccc1-n1c(Cc2ccccc2)nc2c(cnn2-c2ccccc2)c1=O [CBK262310] | 99.8029% |
| Cc1nc(S(=O)(=O)Nc2nc(C(C)C)ns2)cn1C [CBK051323] | 95.2145% |
| CCOc1cc(C)c(C(C)C)cc1S(=O)(=O)NCc1ccccn1 [CBK268080] | 113.771% |
| O=C1c2ccccc2C(=O)N1CCc1nc2c3c4c(sc3ncn2n1)CCCCC4 [CBK268327] | 142.619% |
| CCN(C)C(=O)N1CCN(CCCC(c2ccc(F)cc2)c2ccc(F)cc2)CC1 [CBK024910C] | 106.68% |
| OC1(c2cccnc2F)CCN(Cc2cccc(F)c2)CC1 [CBK284373] | 111.846% |
| O=C1Nc2ccccc2SC1(O)C(F)(F)F (stereo not shown) [CBK025554] | 102.946% |
| O=C(NN1C(=O)c2ccccc2C1=O)c1cc(C(=O)NN2C(=O)c3ccccc3C2=O)cc(N2C(=O)c3ccccc3C2=O)c1 [CBK262100] | 96.2878% |
| CCOc1ccc(C(CC(=O)O)C(=O)O)cc1 (stereo not shown) [CBK261363] | 92.5414% |
| COC(=O)Nc1nc(Cl)cc(Cl)n1 [CBK027433] | 140.519% |
| Brc1ccc(CSc2nnc[nH]2)cc1 [CBK026361] | 114.105% |
| CS(=O)(=O)N1CCN(c2nc(C(F)(F)F)nc3ccsc23)CC1 [CBK304594] | 99.071% |
| CN1CCN(c2ccccc2NC(=S)NC(=O)c2ccc(N3CCCCC3)c([N+](=O)[O-])c2)CC1 [CBK268520C] | 72.639% |
| Cc1ccc(-c2cc(C(=O)Nc3cccnc3)n[nH]2)c(O)c1C [CBK288158] | 100.684% |
| C(=C/c1ccccc1)/C=N/c1ccc2nc(-c3ccc(/N=C/C=C/c4ccccc4)cc3)[nH]c2c1 [CBK261656] | 100% |
| COCCc1nsc(N2CCC(N(C)c3cccnn3)CC2)n1 [CBK304701] | 111.955% |
| CC1CC(C)CN(C(=O)Cn2ncc3cccn3c2=O)C1 (stereo not shown) [CBK283805] | 136.441% |

Quoted from the listing.
% of control remaining, CCOc1cc(C)c(C(C)C)cc1S(=O)(=O)NCc1ccccn1 [CBK268080] reads 113.771%
% of control remaining, OC[C@@H](c1ccccc1)N1CC[C@H]2c3ccc(Br)cc3CC[C@H]21 [CBK017507C] reads 100%
